These are yes or no findings as the source states them, for the method shown. Some binding calls cover weakened binding; strength is not graded here. Tags and fused reporters may be left off the sequences shown.
Columns and labels:
[1] = target: T1, human IL-2Rγc (CD132 protein, Fc Tag) (23-254) (human) (UniProt P31785); test: phage competition ELISA on IL-2Rγc; competitor phage clone 198; + = peptide competes with phage binding
T1 sequence (looked up): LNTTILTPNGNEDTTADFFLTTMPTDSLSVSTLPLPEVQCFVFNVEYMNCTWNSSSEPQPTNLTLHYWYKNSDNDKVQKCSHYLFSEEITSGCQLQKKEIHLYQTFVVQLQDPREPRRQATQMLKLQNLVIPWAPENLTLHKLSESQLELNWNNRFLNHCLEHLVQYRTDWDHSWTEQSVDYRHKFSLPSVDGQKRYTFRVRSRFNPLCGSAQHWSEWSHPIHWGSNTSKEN

[2] = target: T1, human IL-2Rγc (CD132 protein, Fc Tag) (23-254) (human); test: phage competition ELISA on IL-2Rγc; competitor phage clone 236; + = peptide competes with phage binding
[3] = target: T1, human IL-2Rγc (CD132 protein, Fc Tag) (23-254) (human); test: phage competition ELISA on IL-2Rγc; competitor phage clone 224; + = peptide competes with phage binding
[4] = target: T1, human IL-2Rγc (CD132 protein, Fc Tag) (23-254) (human); test: phage competition ELISA on IL-2Rγc; competitor phage clone 248 or 1051; + = peptide competes with phage binding
[5] = target: T1, human IL-2Rγc (CD132 protein, Fc Tag) (23-254) (human); test: phage competition ELISA on IL-2Rγc; competitor phage clone 266; + = peptide competes with phage binding
[6] = target: T2, human IL-2Rβ (CD122 protein, Fc Tag) (27-239) (human) (UniProt P14784); test: phage competition ELISA on IL-2Rβ ECD; competitor phage clone 170; + = peptide competes with phage binding
T2 sequence (looked up): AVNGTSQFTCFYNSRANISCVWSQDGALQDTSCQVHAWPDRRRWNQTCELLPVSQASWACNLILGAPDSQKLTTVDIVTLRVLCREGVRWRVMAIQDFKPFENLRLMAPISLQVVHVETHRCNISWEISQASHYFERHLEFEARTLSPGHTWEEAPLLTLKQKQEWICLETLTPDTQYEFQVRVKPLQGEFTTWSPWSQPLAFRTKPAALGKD

[7] = target: T2, human IL-2Rβ (CD122 protein, Fc Tag) (27-239) (human); test: phage competition ELISA on IL-2Rβ ECD; competitor phage clone 58; + = peptide competes with phage binding
[8] = target: T2, human IL-2Rβ (CD122 protein, Fc Tag) (27-239) (human); test: phage competition ELISA on IL-2Rβ ECD; competitor phage clone 1034 or 1084; + = peptide competes with phage binding
[9] = target: T2, human IL-2Rβ (CD122 protein, Fc Tag) (27-239) (human); test: phage competition ELISA on IL-2Rβ ECD; competitor phage clone 83; + = peptide competes with phage binding

Measured: binding

RTCTEWENVVLCWV [IL-2Rγc ligand SEQ ID NO: 202]
binds: [1] | [2] | [3] | [4] | [5]

CYEVGDYCQSPL [IL-2Rβ ligand SEQ ID NO: 1042]
binds: [6] | [7] | [8] | [9]

DLSDLSTFWLSQ [IL-2Rγc ligand SEQ ID NO: 1051]
binds: [1] | [2] | [3] | [4] | [5]

Reference: patent US20230192767A1 (MEDIKINE, published 2023)
